From paper doi:10.1101/2023.10.12.562039
These are yes or no findings as the source states them, for the method shown. Binding seen in cells or lysates may run through a third protein. A yes stands for co-enrichment or nearness to the bait. Other partners may have been found. Sequences can lack the tags named with a protein.

T1: GFP-AGO1 (ARGONAUTE1 fused to GFP, line pAGO1:GFP-AGO1 ago1-27) (Arabidopsis thaliana) (UniProt O04379)
T1 sequence: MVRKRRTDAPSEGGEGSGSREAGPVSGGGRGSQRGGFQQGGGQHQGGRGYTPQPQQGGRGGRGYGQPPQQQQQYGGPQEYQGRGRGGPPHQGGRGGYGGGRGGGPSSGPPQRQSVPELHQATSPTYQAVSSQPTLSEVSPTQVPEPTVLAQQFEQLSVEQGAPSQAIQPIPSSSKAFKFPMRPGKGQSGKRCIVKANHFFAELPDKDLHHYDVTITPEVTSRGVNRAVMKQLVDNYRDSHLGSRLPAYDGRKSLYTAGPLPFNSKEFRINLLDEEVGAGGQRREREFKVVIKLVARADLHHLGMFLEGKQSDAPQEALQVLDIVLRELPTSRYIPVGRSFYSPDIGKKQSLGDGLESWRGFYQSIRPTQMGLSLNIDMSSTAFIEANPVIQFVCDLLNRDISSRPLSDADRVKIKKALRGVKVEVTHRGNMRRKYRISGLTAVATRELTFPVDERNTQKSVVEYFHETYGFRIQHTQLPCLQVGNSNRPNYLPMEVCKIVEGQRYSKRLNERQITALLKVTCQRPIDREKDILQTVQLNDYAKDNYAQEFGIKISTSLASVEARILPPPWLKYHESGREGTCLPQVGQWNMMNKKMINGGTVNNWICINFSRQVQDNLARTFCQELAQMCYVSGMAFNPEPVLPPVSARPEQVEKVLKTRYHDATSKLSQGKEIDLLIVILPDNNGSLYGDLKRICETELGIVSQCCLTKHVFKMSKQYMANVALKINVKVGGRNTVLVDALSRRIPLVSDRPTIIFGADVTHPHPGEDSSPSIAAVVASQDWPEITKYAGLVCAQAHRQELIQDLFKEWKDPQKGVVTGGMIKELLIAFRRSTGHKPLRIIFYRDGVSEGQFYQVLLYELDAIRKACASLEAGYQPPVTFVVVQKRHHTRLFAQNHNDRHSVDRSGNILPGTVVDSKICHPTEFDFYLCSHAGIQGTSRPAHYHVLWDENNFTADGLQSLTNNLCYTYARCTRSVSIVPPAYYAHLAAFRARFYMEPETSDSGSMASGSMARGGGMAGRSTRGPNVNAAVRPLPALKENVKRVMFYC

B1: LARP1a (protein, UniProt Q940X9 1-826)
chain: MMAETEGSVADDRELITREGGIGTKSPWKTTTSPVETIDAPVMGAHSWPALADAAQQPRPKNPPAPAPAPPSKNIPTSIPIPTPAVTGQAKSKGGGKANPGHKNPSGRHSKPGPRSNQNGPPPPPYLVHAVPYHPPPFPPMVPLPHAAGPDFPYAPYPPYPVPVPPVTESGNEKQVQASPLPPVLPAPQGDPGKPWPHQRGFDPRNMPQGAGPRNFGRPPFMGPAPGFLVGPGPGFPGPVYYLPGPPPGAIRGPYPPRFAPYPVNQGPPILSPEKLDLRDRVLKQVEYYFSDENLENDHYLISLMDEEGWVPTKIIAGFKRVKAMTMDVDFIVYALGFSNSVEVQGDQIRKRDKWSDWIPASKKSTSAETIGDGDKDSPKSITSGDNFGNPSKGSSKPTVSDFSSEGAQSSRTNNYKSGNLKSSADEKRNVEDLSNDFSNTFLLDEELDLEHRSPRKSGLSMSKSIEYEDDDMAVDDQDIQKLVIVTQNSGKSDGAGIGGTEAKNIPKELASTINDGLYYFEQELKKKRSGRRKNNSHLDTKDGKIKSGEGLNTKLGENSAANDGGEEHGIITSRRKQNKGTHKHHTAHARRFFSSNIRNNGNISESPPSSSIGFFFGSTPPDSHGPRLSKLSSSPQCTLSGSSPPVGSLPKSFPPFQHPSHQLLEENGFKQEKYLKYRKRCLNERKKLGSGCSEEMNHLYRFWSYFLRDTFVLSMYDDFQKFALEDAAGNYDYGLECLFRFYSYGLEKHFDEDLYKDFEKLSLDFYHKGNLYGLEKYWAFHHYRGKEEPITKHPELEKLLKEEFRSIDDFRAKETITNQKENKSH
B2: PAB8 (protein, UniProt Q9FXA2 1-671)
chain: MAQIQHQGQNANGGVAVPGAAAAEAAAAAAGAAAAAAGAAQQGTTSLYVGDLDATVTDSQLFEAFTQAGQVVSVRVCRDMTTRRSLGYGYVNYATPQDASRALNELNFMALNGRAIRVMYSVRDPSLRKSGVGNIFIKNLDKSIDHKALHETFSAFGPILSCKVAVDPSGQSKGYGFVQYDTDEAAQGAIDKLNGMLLNDKQVYVGPFVHKLQRDPSGEKVKFTNVYVKNLSESLSDEELNKVFGEFGVTTSCVIMRDGEGKSKGFGFVNFENSDDAARAVDALNGKTFDDKEWFVGKAQKKSERETELKQKFEQSLKEAADKSQGSNLYVKNLDESVTDDKLREHFAPFGTITSCKVMRDPSGVSRGSGFVAFSTPEEATRAITEMNGKMIVTKPLYVALAQRKEDRKARLQAQFSQMRPVNMPPAVGPRMQMYPPGGPPMGQQLFYGQGPPAMIPQPGFGYQQQLVPGMRPGGSPMPNFFMPMMQQGQQQQQQQQQQQRPGGGRRGALPQPQQPSPMMQQQMHPRGRMYRYPQRDVNTMPGPTQNMLSVPYDVSSGGGVHHRDSPTSQPVPIVALATRLANAAPEQQRTMLGENLYPLVEQLEPESAAKVTGMLLEMDQTEVLHLLESPEALKAKVTEAMDVLRSVAQQQAGGAADQLASLSLGDNIVP
B3: RNA helicase RH12 (protein, UniProt Q9M2E0 1-498)
chain: MNTNRGRYPPGVGTGRGAPPNPDYHQSYRQQQPPQDQQYVQRGYSQNPQQMQLQQQHQQQQQQQQWSRRPQLPGNASNANEVVQQTTQPEASSDANGQDWKATLRLPPPDTRYQTADVTATKGNEFEDYFLKRDLLKGIYEKGFEKPSPIQEESIPIALTGSDILARAKNGTGKTGAFCIPVLEKIDPNNNVIQAMILVPTRELALQTSQVCKELSKYLNIQVMVTTGGTSLRDDIMRLHQPVHLLVGTPGRILDLTKKGVCVLKDCAMLVMDEADKLLSAEFQPSLEELIQFLPQNRQFLMFSATFPVTVKAFKDRHLRKPYVINLMDQLTLMGVTQYYAFVEERQKVHCLNTLFSKLQINQSIIFCNSVNRVELLAKKITELGYSCFYIHAKMVQDHRNRVFHEFRNGACRNLVCTDLFTRGIDIQAVNVVINFDFPRTSESYLHRVGRSGRFGHLGLAVNLVTYEDRFKMYQTEQELGTEIKPIPSNIDQAIYCQ
B4: RNA-binding protein 47A (protein, UniProt F4I3B3 1-445)
chain: MQTPNNNGSTDSVLPPTSAGTTPPPPLQQSTPPPQQQQQQQWQQQQQWMAAMQQYPAAAMAMMQQQQMMMYPHPQYAPYNQAAYQQHPQFQYAAYQQQQQQHHQSQQQPRGGSGGDDVKTLWVGDLLHWMDETYLHTCFSHTNEVSSVKVIRNKQTCQSEGYGFVEFLSRSAAEEALQSFSGVTMPNAEQPFRLNWASFSTGEKRASENGPDLSIFVGDLAPDVSDAVLLETFAGRYPSVKGAKVVIDSNTGRSKGYGFVRFGDENERSRAMTEMNGAFCSSRQMRVGIATPKRAAAYGQQNGSQALTLAGGHGGNGSMSDGESNNSTIFVGGLDADVTEEDLMQPFSDFGEVVSVKIPVGKGCGFVQFANRQSAEEAIGNLNGTVIGKNTVRLSWGRSPNKQWRSDSGNQWNGGYSRGQGYNNGYANQDSNMYATAAAAVPGAS
B5: AGO5 (protein, UniProt Q9SJK3 1-997)
chain: MSNRGGGGHGGASRGRGGGRRSDQRQDQSSGQVAWPGLQQSYGGRGGSVSAGRGRGNVGRGENTGDLTATQVPVASAVSGGRGRGNIGDPTFSVASSSKTVSVASSSKEESKNTEVSETMSNLQITSTETKPEMTSLPPASSKAVTFPVRPGRGTLGKKVMVRANHFLVQVADRDLYHYDVSINPEVISKTVNRNVMKLLVKNYKDSHLGGKSPAYDGRKSLYTAGPLPFDSKEFVVNLAEKRADGSSGKDRPFKVAVKNVTSTDLYQLQQFLDRKQREAPYDTIQVLDVVLRDKPSNDYVSVGRSFFHTSLGKDARDGRGELGDGIEYWRGYFQSLRLTQMGLSLNIDVSARSFYEPIVVTDFISKFLNIRDLNRPLRDSDRLKVKKVLRTLKVKLLHWNGTKSAKISGISSLPIRELRFTLEDKSEKTVVQYFAEKYNYRVKYQALPAIQTGSDTRPVYLPMELCQIDEGQRYTKRLNEKQVTALLKATCQRPPDRENSIKNLVVKNNYNDDLSKEFGMSVTTQLASIEARVLPPPMLKYHDSGKEKMVNPRLGQWNMIDKKMVNGAKVTSWTCVSFSTRIDRGLPQEFCKQLIGMCVSKGMEFKPQPAIPFISCPPEHIEEALLDIHKRAPGLQLLIVILPDVTGSYGKIKRICETELGIVSQCCQPRQVNKLNKQYMENVALKINVKTGGRNTVLNDAIRRNIPLITDRPTIIMGADVTHPQPGEDSSPSIAAVVASMDWPEINKYRGLVSAQAHREEIIQDLYKLVQDPQRGLVHSGLIREHFIAFRRATGQIPQRIIFYRDGVSEGQFSQVLLHEMTAIRKACNSLQENYVPRVTFVIVQKRHHTRLFPEQHGNRDMTDKSGNIQPGTVVDTKICHPNEFDFYLNSHAGIQGTSRPAHYHVLLDENGFTADQLQMLTNNLCYTYARCTKSVSIVPPAYYAHLAAFRARYYMESEMSDGGSSRSRSSTTGVGQVISQLPAIKDNVKEVMFYC
B6: RNA-binding protein 47B (protein, UniProt Q0WW84 1-435)
chain: MQTTNGSDSTLATSGATPPNQQTPPPPQQWQQQQQQQQQWMAAMQYPPAAAMMMMQQQQMLMYPHQYVPYNQGPYQQHHPQLHQYGSYQQHQHQQHKAIDRGSGDDVKTLWVGDLLHWMDETYLHSCFSHTGEVSSVKVIRNKLTSQSEGYGFVEFLSRAAAEEVLQNYSGSVMPNSDQPFRINWASFSTGEKRAVENGPDLSVFVGDLSPDVTDVLLHETFSDRYPSVKSAKVVIDSNTGRSKGYGFVRFGDENERSRALTEMNGAYCSNRQMRVGIATPKRAIANQQQHSSQAVILAGGHGSNGSMGYGSQSDGESTNATIFVGGIDPDVIDEDLRQPFSQFGEVVSVKIPVGKGCGFVQFADRKSAEDAIESLNGTVIGKNTVRLSWGRSPNKQWRGDSGQQWNGGYSRGHGYNNGGGYANHHDSNNYHGEN
B7: RNA-binding protein 47C (protein, UniProt Q9SX79 1-432)
chain: MADVKIQSESESSDSHPVVDNQPPPPPPPPQQPAKEEENQPKTSPTPPPHWMRYPPTVIIPHQMMYAPPPFPPYHQYPNHHHLHHQSRGNKHQNAFNGENKTIWVGDLHHWMDEAYLNSSFASGDEREIVSVKVIRNKNNGLSEGYGFVEFESHDVADKVLREFNGTTMPNTDQPFRLNWASFSTGEKRLENNGPDLSIFVGDLSPDVSDNLLHETFSEKYPSVKAAKVVLDANTGRSKGYGFVRFGDENERTKAMTEMNGVKCSSRAMRIGPATPRKTNGYQQQGGYMPNGTLTRPEGDIMNTTIFVGGLDSSVTDEDLKQPFNEFGEIVSVKIPVGKGCGFVQFVNRPNAEEALEKLNGTVIGKQTVRLSWGRNPANKQPRDKYGNQWVDPYYGGQFYNGYGYMVPQPDPRMYPAAPYYPMYGGHQQQVS
B8: RNA helicase RH6 (protein, UniProt Q94BV4 1-528)
chain: MNNNNNNRGRFPPGIGAAGPGPDPNFQSRNPNPPQPQQYLQSRTPFPQQPQPQPPQYLQSQSDAQQYVQRGYPQQIQQQQQLQQQQQQQQQQQEQQWSRRAQLPGDPSYIDEVEKTVQSEAISDSNNEDWKATLKLPPRDNRYQTEDVTATKGNEFEDYFLKRDLLRGIYEKGFEKPSPIQEESIPIALTGSDILARAKNGTGKTGAFCIPTLEKIDPENNVIQAVILVPTRELALQTSQVCKELSKYLKIEVMVTTGGTSLRDDIMRLYQPVHLLVGTPGRILDLAKKGVCVLKDCAMLVMDEADKLLSVEFQPSIEELIQFLPESRQILMFSATFPVTVKSFKDRYLKKPYIINLMDQLTLMGVTQYYAFVEERQKVHCLNTLFSKLQINQSIIFCNSVNRVELLAKKITELGYSCFYIHAKMVQDHRNRVFHDFRNGACRNLVCTDLFTRGIDIQAVNVVINFDFPRTSESYLHRVGRSGRFGHLGLAVNLVTYEDRFKMYQTEQELGTEIKPIPSLIDKAIYCQ

Biological target: T1, GFP-AGO1 (ARGONAUTE1 fused to GFP, line pAGO1:GFP-AGO1 ago1-27) (Arabidopsis thaliana)
Test: affinity purification with mass spectrometry

binding, binds:
B1
B2
B3
B4
B5
B6
B7
B8
